Hit rate of the full screen: of about 390,000 compounds, about 4,000 (1%) were called active. Inconclusive means that the source gave no clear call. Such entries were picked first, then a sample of the others. Calls come from the whole dose curve; as a rule, active = well fitted inhibition curve with a large enough effect; inconclusive = small, poorly fitted or top-dose-only effect, or another doubt; inactive = no such curve, though single readings can be large or run the other way. Where the call is inconclusive, the potency comes from a doubtful curve fit.
biological target: DNA polymerase iota (Homo sapiens) (UniProt Q9UNA4); test: qHTS for Inhibitors of Polymerase Iota; settings: Pol iota fluorescent replication assay, 10 min; series mostly up to 115 µM
Method in brief: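 Pol iota at 10 nM preincubated 15 min with compounds at room temperature; reaction started with fluorescent substrate, 50 nM final. Fluorescence read kinetically at 0 and 10 min; buffer-only wells as negative control.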
Potency is the fitted concentration of half-maximal effect.

Amino acid sequences for entries named in this document (tags omitted). A change or cut given only in a name is not applied to a line headed by its entry.
UniProt Q9UNA4: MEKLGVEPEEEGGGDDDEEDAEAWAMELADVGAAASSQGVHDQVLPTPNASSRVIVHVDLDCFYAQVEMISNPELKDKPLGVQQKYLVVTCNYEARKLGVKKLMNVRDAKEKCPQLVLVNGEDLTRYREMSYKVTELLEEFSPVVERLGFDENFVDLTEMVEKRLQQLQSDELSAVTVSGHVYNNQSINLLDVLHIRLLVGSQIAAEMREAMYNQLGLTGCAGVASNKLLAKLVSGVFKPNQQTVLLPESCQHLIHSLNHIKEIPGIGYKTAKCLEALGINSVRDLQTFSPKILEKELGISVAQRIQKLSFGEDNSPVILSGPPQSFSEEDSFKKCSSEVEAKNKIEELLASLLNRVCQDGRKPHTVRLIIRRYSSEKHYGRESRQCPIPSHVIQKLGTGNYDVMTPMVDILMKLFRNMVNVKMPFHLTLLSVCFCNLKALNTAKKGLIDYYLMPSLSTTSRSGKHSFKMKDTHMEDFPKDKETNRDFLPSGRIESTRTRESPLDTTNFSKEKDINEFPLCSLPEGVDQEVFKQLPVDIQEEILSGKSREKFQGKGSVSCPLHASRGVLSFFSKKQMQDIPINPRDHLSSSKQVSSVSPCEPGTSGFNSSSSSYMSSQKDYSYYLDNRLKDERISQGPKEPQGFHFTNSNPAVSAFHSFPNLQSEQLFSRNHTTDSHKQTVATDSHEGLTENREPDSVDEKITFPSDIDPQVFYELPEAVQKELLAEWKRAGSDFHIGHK

Compound	Potency
O=C(Nc1ccc(N2CCOCC2)c(S(=O)(=O)Nc2ccc(Cl)cc2)c1)c1cnccn1	inactive
O=[N+]([O-])c1ccc(C=NNc2ccc(S(=O)(=O)O)cc2)cc1	inconclusive: 22.4 µM [inhibitor, single point]
CCOc1ccc(S(=O)(=O)NCc2ccc3c(c2)OCO3)cc1	inconclusive: 0.631 µM [inhibitor, full curve, poor fit]
Cc1onc(-c2c(F)cccc2Cl)c1C(=O)Nc1cc(S(=O)(=O)N2CCCCC2)ccc1O	inactive
COc1ccc(CN2C(=O)c3ccccc3C2C(=O)NC2CCC(C)CC2)c(OC)c1 (configuration not stated)	inactive
CCS(=O)(=O)Nc1cc2c3c(c1)CCC(=O)N3CCC2	inactive
O=C(COc1ccccc1-c1nc(-c2ccccc2)no1)Nc1ccccc1[N+](=O)[O-]	inactive
CCN(CC)c1ccc(/C=C/c2cc(-c3ccccc3)c3ccccc3n2)cc1	inconclusive: 5.01 µM [inhibitor, partial curve, poor fit]
COc1cc(/C=C/C(=O)c2ccc3c(c2)OCO3)cc(Cl)c1O	active: 20 µM
CCOc1ccc(-n2nc3cc(C)c(N)cc3n2)cc1	inconclusive: 39.8 µM [inhibitor, single point]
O=C(Nc1ccc(S(=O)(=O)Nc2ccccn2)cc1)c1cccc(Cl)c1	inactive
CCCc1cc(=O)n2[nH]c(NCc3ccccc3OC)nc2n1	inconclusive: 89.1 µM [inhibitor, single point]
Cc1c(-c2nsc(NC(=O)c3cccs3)n2)nnn1-c1ccc(Br)cc1	inconclusive: 89.1 µM [inhibitor, single point]
C=CCOc1ccc(/C=C2\SC(=S)N(C(C(=O)O)c3ccccc3)C2=O)cc1 (configuration not stated)	inconclusive: 31.6 µM [inhibitor, single point]
CC1(C)CC(=O)c2cc3c(N)c(C(=O)NCc4ccccc4)sc3nc2C1	inconclusive: 31.6 µM [inhibitor, single point]
O=C(CCc1nc2ccccc2c(=O)[nH]1)OCC(=O)N1CCc2ccccc21	inactive
CSC1=NSC2=NC(=O)/C(=C\c3coc4ccccc4c3=O)C(=N)N12	inconclusive: 15.8 µM [inhibitor, partial curve, poor fit]
C=CCn1c(COc2ccccc2-c2ccccc2)nnc1SCC(=O)NC(=O)NCc1ccco1	inconclusive: 39.8 µM [inhibitor, partial curve, poor fit]
COc1ccc(CNCc2ccccc2)cc1COc1ccc(NC(C)=O)cc1	inactive
CCOC(=O)c1[nH]c2ccccc2c1NC(=O)CC(C)C	inconclusive: 39.8 µM [inhibitor, partial curve, poor fit]
COc1cccc(NC(=O)C2CCN(C(=O)N3CC(C)Oc4ccccc43)CC2)c1 (configuration not stated)	inactive
O=c1[nH]cnc2scc(-c3ccc(Br)cc3)c12	inconclusive: 89.1 µM [inhibitor, single point]
COc1cc([N+](=O)[O-])ccc1-c1ccc(/C=N\n2cnnc2)o1	inconclusive: 79.4 µM [inhibitor, single point]

Compound	Potency
COc1cccc(N=C2SC(C(=O)Nc3ccc(F)cc3)CC(=O)N2C)c1 (configuration not stated)	inconclusive: 56.2 µM [inhibitor, single point]
Cc1c2ccccc2nc2c(F)c(NC(C)C)c(F)c(F)c12	active: 17.8 µM
CCOc1ccc(Cl)cc1S(=O)(=O)N1CCC(C(=O)NCc2ccco2)CC1	inconclusive: 28.2 µM [inhibitor, partial curve, poor fit]
O=C(C1CC1)N1CCN(c2nc3ccc(F)cc3s2)CC1	inconclusive: 2.51 µM [inhibitor, partial curve, poor fit]
O=C(O)c1ccc(-n2nnnc2SCc2ccccc2F)cc1	inactive
CC(=O)Oc1ccc(N(C(C)=O)S(=O)(=O)c2ccc3ccccc3c2)cc1	inconclusive: 44.7 µM [inhibitor, partial curve, poor fit]
O=C(CCn1ccc2cc(S(=O)(=O)N3CCCC3)ccc21)NCc1cccc(Br)c1	inactive
COc1nc(Cl)cn(-c2ccc(C)cc2)c1=O	inactive
O=C(CSc1nnc(NC(=O)c2ccccc2F)s1)NC1CCCC1	inconclusive: 12.6 µM [inhibitor, partial curve, poor fit]
CCOCCCNc1nc2c(C)cccn2c(=O)c1/C=C1\SC(=S)N(CC(C)C)C1=O	inactive
C#CCCc1ccccc1/C=[N+](/C)[O-]	inconclusive: 28.2 µM [inhibitor, single point]
N#Cc1c(Sc2ncc(C(F)(F)F)cc2Cl)nsc1C/C=N\OCc1ccccc1Br	inconclusive: 25.1 µM [inhibitor, single point]
O=C(Nc1cc(=O)c2ccccc2o1)N1CCOCC1	inconclusive: 79.4 µM [inhibitor, partial curve, poor fit]
COc1cccc(CNC(=O)CSc2c3c(nc4cc(Cl)ccc24)CCCC3)c1	inactive
COc1cccc(N2CC(C(=O)Nc3nnc(SCC(=O)N4CCCC4)s3)CC2=O)c1 (configuration not stated)	inconclusive: 20 µM [inhibitor, partial curve, poor fit]
O=c1ccc(-c2ccc(S(=O)(=O)Nc3cccc([N+](=O)[O-])c3)s2)n[nH]1	inconclusive: 79.4 µM [inhibitor, single point]
COc1ccc(NC(=O)Cn2cnc3c(oc4ccccc43)c2=O)cc1OC	inconclusive: 89.1 µM [inhibitor, single point]
Cc1cc(C)c2c(CC(=O)O)c(C)[nH]c2c1	inactive
Oc1ccc(C=Nc2cccc3ccccc23)c(O)c1	inconclusive: 8.91 µM [inhibitor, partial curve, poor fit]
NC(=O)CC(NC(=O)Cc1cccc2ccccc12)c1ccc(NC2CCCCCC2)c([N+](=O)[O-])c1 (configuration not stated)	inconclusive: 35.5 µM [inhibitor, partial curve, poor fit]
Cc1ccccc1OCC(=O)NC(=S)Nc1ccc2c3c(cccc13)CC2	inconclusive: 35.5 µM [inhibitor, single point]
Cc1cc(C)nc(NN2C(=O)/C(=C/c3ccccc3)SC2=S)n1	inactive
CC(C)(C)c1csc(NC(=O)c2ccncc2)n1	inactive

Compound	Potency
C[C@@H](C(=O)N1CCNCC1)n1cc(CCCN=C(N)N)nn1	inconclusive: 50.1 µM [inhibitor, partial curve]
CCCCC(=O)NC(c1ccc(C(C)C)cc1)c1ccc2cccnc2c1O (configuration not stated)	inconclusive: 100 µM [inhibitor, single point]
CC(=O)Nc1ccc(NC(=O)Cn2nc(C(=O)Nc3ccc(C)cc3)ccc2=O)cc1	inconclusive: 31.6 µM [inhibitor, full curve, poor fit]
Cc1ccc(C(=O)Oc2coc(CSc3nnc(NC(=O)C4CC4)s3)cc2=O)cc1	inconclusive: 112 µM [inhibitor, partial curve, poor fit]
O=c1ccc2ccc(O[C@@H]3O[C@H](CO[C@@H]4OC[C@](O)(CO)[C@H]4O)[C@@H](O)[C@H](O)[C@H]3O)cc2o1	inconclusive: 79.4 µM [inhibitor, single point]
Cc1ccc(C(=O)OCC(=O)Nc2sccc2C(N)=O)cc1NC(=O)c1ccco1	inconclusive: 35.5 µM [inhibitor, partial curve, poor fit]
CC(NS(=O)(=O)/C=C/c1ccccc1)C(=O)O (configuration not stated)	inconclusive: 79.4 µM [inhibitor, partial curve, poor fit]
CC1(C)CC(C)(O)N(Cc2ccccc2)C(=S)N1 (configuration not stated)	inconclusive: 89.1 µM [inhibitor, single point]
O=C(N/N=C/c1ccc(O)c(O)c1)N/N=C/c1ccc(O)c(O)c1	active: 0.891 µM
Cc1noc(C)c1NC(=O)N(C)C[C@@H]1Oc2c(NC(=O)NC(C)C)cccc2C(=O)N([C@@H](C)CO)C[C@@H]1C	inconclusive: 112 µM [inhibitor, partial curve, poor fit]
Nc1c(C(=O)Nc2ccccc2)nnn1Cc1ccc(F)cc1Cl	inactive
Fc1ccc(CSc2nnc(-c3ccncc3)o2)cc1	inactive
Cc1c(NC(=O)C(C)OC(=O)c2cccnc2Cl)c(=O)n(-c2ccccc2)n1C (configuration not stated)	active: 79.4 µM
O=C(Cc1ccc(Br)cc1)Nc1ncc([N+](=O)[O-])s1	inconclusive: 44.7 µM [inhibitor, partial curve]
O=c1[nH]c(-c2ccccc2F)nc2c1sc(=S)n2Cc1ccccc1	inconclusive: 20 µM [inhibitor, partial curve, poor fit]
Cc1ccc([N+](=O)[O-])cc1S(=O)(=O)Nc1ccc(C(=O)NCc2ccccn2)cc1	inconclusive: 63.1 µM [inhibitor, partial curve, poor fit]
Cc1cccc(C(=O)Nc2cc(=O)n(C)c(=O)n2C)c1	inactive
COc1ccc(NC(=O)CSc2ncnc3c2nnn3-c2ccc(F)cc2)c(OC)c1	inconclusive: 28.2 µM [inhibitor, partial curve, poor fit]
CCc1ccc(OCCCn2c(-c3ccc(Cl)cc3)nc3ccccc3c2=O)cc1	inconclusive: 100 µM [inhibitor, single point]
CCN(CC)c1ccc(CN(C(=O)Cc2coc3ccc(C)cc23)C2CCS(=O)(=O)C2)cc1 (configuration not stated)	inconclusive: 79.4 µM [inhibitor, single point]
CC(=O)Nc1ccc(S(=O)(=O)NC(CC(=O)NCCc2ccccc2)C(C)C)cc1 (configuration not stated)	inconclusive: 89.1 µM [inhibitor, full curve]

Structures above that contain a COOH group:
Compound	Potency
C=CCOc1ccc(/C=C2\SC(=S)N(C(C(=O)O)c3ccccc3)C2=O)cc1 (configuration not stated)	inconclusive: 31.6 µM [inhibitor, single point]
O=C(O)c1ccc(-n2nnnc2SCc2ccccc2F)cc1	inactive
Cc1cc(C)c2c(CC(=O)O)c(C)[nH]c2c1	inactive
CC(NS(=O)(=O)/C=C/c1ccccc1)C(=O)O (configuration not stated)	inconclusive: 79.4 µM [inhibitor, partial curve, poor fit]
